In data set [1] the test system is Panc1 (pancreatic carcinoma) cells. In words: MTT cytotoxicity assay, Panc1. How it is done:
(§1) The cell lines PANC-1 (pancreatic carcinoma), MCF7 (breast carcinoma), HepG2 (hepatocellular carcinoma), and WI-38 (normal lung fibroblast cells) were obtained from the American Type Culture Collection (ATCC) located in Manassas, Virginia, United States. These cell lines were cultured in DMEM (Invitrogen, Life Technologies, Rockville, MD, USA) medium supplemented with 10% FBS (Fetal Bovine Serum, Hyclone, Thermo Fisher Scientific, Waltham, MA, USA) and 1% penicillin (Sigma-Aldrich, Louis, MO, USA). The cells were maintained at 37°C in a 5% CO2 and 95% humidity environment for a maximum period of two weeks to ensure their viability for further experimentation. […]
(§2) The cultivated cells were seeded in 96-well plates at a concentration of 1 × 10^4 cells/100 μL per well (Naik et al. [2014]). […] The viability of the cancer cells was determined by measuring the amount of formazan formed by viable cells. […] The intensity of the produced colour was measured using an ELISA plate reader (Bio-Tek EL 800, Agilent technology, Santa Clara, CA, USA) at wavelength of 570 nm. The percent of cells viability was calculated by the following equation: %viability=AA570oftreated-AA570ofblank/AA570ofcontrol-AA570ofblank×100
(§3) AA Average of triplicate absorbances for each sample concentration
(In general: Tetrazolium assays rely on reduction of a dye to a coloured formazan, in cell work by metabolically active cells.)

Data set [2] relates to HepG2 (hepatocellular carcinoma) cells. In words: MTT cytotoxicity assay, HepG2. As to conditions: Homo sapiens, HepG2, 48 h, read-out: Cytotoxicity IC50 HepG2. How it is done: as §1, §2, §3
The test system of data set [3] is MCF7 (breast carcinoma) cells. In words: MTT cytotoxicity assay, MCF7. The settings on record: Homo sapiens, MCF7, 48 h, read-out: Cytotoxicity IC50 MCF7. The protocol:
as §1, §2, §3

A further data set can be described thus: in vitro. As to conditions: human. How it is done:
as §1, §2, §3

The test system of data set [4] is Casp3 gene expression in Panc1 cells. In words: SYBR Green RT-PCR gene expression, caspase3. The data set is classed as cell-based. As to conditions: 48 h, (Z)-3-hexenyl-β-D-glucopyranoside at 10 µM, control 1. The protocol: (§4) The effects of 10 µM of (Z)-3-hexenyl-β-D-glucopyranoside on the mRNA expression of caspase3, bax, and Bcl-2 genes were investigated using the reverse transcription-polymerase […] technique. After a 48-hour incubation of (Z)-3-hexenyl-β-D-glucopyranoside in Panc1 (pancreatic carcinoma) cells, mRNA isolation of the selected proteins was performed using the RN easy extraction kit (Qiagen, Hilden, Germany), following previously described methods (Janicke et al. [1998]). For real-time quantitative PCR of the RNA templates, a one-step RT-PCR kit with SYBR® Green (Bio-Rad SYBR Green PCR MMX, Hercules, California, USA) was added to a 25 μL 2X SYBR® Green RT-PCR reaction mix (Bio-Rad, Hercules, California, USA). The reaction mix contained 2X reaction buffer with 0.4 mM of each dNTP, magnesium chloride, iTaq DNA polymerase, 20 nM fluorescein SYBR® Green I dye, stabilizers, 11 μL nuclease-free water, 1.5 μL reverse primer (10 μM), 1.5 μL forward primer (10 μM), 1 μL iScript reverse transcriptase, and RNA template (1 pg to 100 ng total RNA). The cDNA synthesis and PCR amplifications were performed in the same tube using Rotor-Gene RT-PCR (Qiagen, Hilden, Germany) software 1.7 (Abed et al. [2021]). The primers used in the RT-PCR reaction were obtained from Corbett Life Science Division (Reg. No. QEC21313), Corbett Research, Mortlake, Australia. […]

Data set [5] deals with Bax gene expression in Panc1 cells. In words: SYBR Green RT-PCR gene expression, Bax. The class given is cell-based. The settings on record: 48 h, (Z)-3-hexenyl-β-D-glucopyranoside at 10 µM, control 1.436. The protocol: as §4
For data set [6], the system named is Bcl-2 gene expression in Panc1 cells. In words: SYBR Green RT-PCR gene expression, Bcl-2. As to conditions: 48 h, (Z)-3-hexenyl-β-D-glucopyranoside at 10 µM, control 1. The data set is classed as cell-based. The protocol: as §4

The results in this text go back to paper PMC10933169, “Potent anticancer activity of (Z)-3-hexenyl-β-D-glucopyranoside in pancreatic cancer cells” (Naunyn-Schmiedeberg's Archives of Pharmacology, 2023).

The structures appear in SMILES notation. Read-outs that look alike come from different tables or passages of the source.

What is called IC50 is the point on the concentration scale where inhibition reaches its midpoint.

Take `CN[C@@H]1C[C@H]2O[C@@](C)([C@@H]1OC)n1c3ccccc3c3c4c(c5c6ccccc6n2c5c31)C(=O)NC4` [Staurosporine, reference compound]: the IC50 in data set [1] (Homo sapiens, PANC-1, 48 h, read-out: Cytotoxicity IC50 Panc1) stood at 15.5 µM; in data set [1] (human) it was 15.7 µM; in data set [2], 11.7 µM; in data set [3] it was 20.8 µM; in the data set “in vitro” it was 41 µM. Further, in data set [4], the “RT-PCR results fold change Casp3” value was 6.794 fold. Besides, the “RT-PCR results fold change Bax” value in data set [5] came to 6.217 fold. Also, in data set [6], the “RT-PCR results fold change Bcl-2” value was determined as 0.183 fold.
